Experimental data from paper PMC12044326 (Clinical Pharmacology in Drug Development, 2025).

Assay: in vitro
Settings: human, Caco-2

Papp: 0.542 ×10⁻⁶ cm/s
SMILES: CC(C)NCC(O)COc1ccc(CC(N)=O)cc1 (stereo not shown) [atenolol]
